The source of these data is PMC8201479, “Trisubstituted Pyrrolinones as Small-Molecule Inhibitors Disrupting the Protein–RNA Interaction of LIN28 and Let-7” (ACS Medicinal Chemistry Letters, 2021).

Construct, isoform or probe ends are uncertain for at least one entry. At least one verdict was read from the data and is not stated in words by the source. Tags and fusion partners may be left off the protein sequences shown.

The target of this data set is T1, LIN28A (16-187), untagged (human) (UniProt Q9H9Z2).
T1 sequence (looked up): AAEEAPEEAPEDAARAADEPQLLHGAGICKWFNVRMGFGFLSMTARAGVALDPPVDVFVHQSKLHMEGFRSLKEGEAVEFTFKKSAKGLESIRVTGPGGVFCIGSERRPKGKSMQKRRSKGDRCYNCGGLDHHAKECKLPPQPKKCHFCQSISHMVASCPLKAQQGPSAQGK
Briefly: EMSA. The following applies: 10 nM protein, 5 nM RNA, 50 uM ZnCl2; EMSA: 50 mM Tris pH 7.5, 100 mM NaCl, 10 mM beta-ME, 50 uM ZnCl2, 2% DMSO, 0.01% Tween 20, 12% glycerol, 2 h, room temperature; recombinant protein; residues 16-187; label: 3' Cy3. A general note: In EMSA bound probe runs differently from free probe, usually more slowly.

Consider “GGGGUAGUGAUUUUACCCUGUUUAGGAGAU [preE-let-7f-1-Cy3]”, for which the binding result is reported as “binds”.
